The target of test [1] is Flag-tagged NPC1 (Niemann-Pick C1) (UniProt O15118). Put plainly: co-IP; HEK293 cells co-transfected with a Flag-tagged and a GFP-tagged construct; lysates (1% Triton X-100, 50 mM Tris pH 7.4, 150 mM NaCl, 10% glycerol) precipitated with anti-Flag resin, blotted with anti-GFP and anti-flag.
Test [2] addresses flag-tagged BMPER expressed in HEK293 cells (UniProt Q8CJ69). The description is as above.
The target of test [3] is overexpressed NPC1 in HEK293 cells (UniProt O15118). As to the kind of experiment: co-IP; overexpressed NPC1 and IR in HEK293 cells (Supplementary Fig. 8h).
Test [4] concerns the target endogenous NPC1 in primary hepatocytes (mouse (endogenous in primary hepatocytes)) (UniProt O35604). Put plainly: co-IP; primary hepatocytes treated with flag-tagged BMPER; endogenous NPC1 (Supplementary Fig. 8d; which protein was precipitated is not told); only the binder purified.

Chains of the proteins cited; added tags and fusions are not shown. Lines headed by an entry give the natural chain unless they say otherwise; changes in a name come on top. Residues count along the entry.
UniProt O15118: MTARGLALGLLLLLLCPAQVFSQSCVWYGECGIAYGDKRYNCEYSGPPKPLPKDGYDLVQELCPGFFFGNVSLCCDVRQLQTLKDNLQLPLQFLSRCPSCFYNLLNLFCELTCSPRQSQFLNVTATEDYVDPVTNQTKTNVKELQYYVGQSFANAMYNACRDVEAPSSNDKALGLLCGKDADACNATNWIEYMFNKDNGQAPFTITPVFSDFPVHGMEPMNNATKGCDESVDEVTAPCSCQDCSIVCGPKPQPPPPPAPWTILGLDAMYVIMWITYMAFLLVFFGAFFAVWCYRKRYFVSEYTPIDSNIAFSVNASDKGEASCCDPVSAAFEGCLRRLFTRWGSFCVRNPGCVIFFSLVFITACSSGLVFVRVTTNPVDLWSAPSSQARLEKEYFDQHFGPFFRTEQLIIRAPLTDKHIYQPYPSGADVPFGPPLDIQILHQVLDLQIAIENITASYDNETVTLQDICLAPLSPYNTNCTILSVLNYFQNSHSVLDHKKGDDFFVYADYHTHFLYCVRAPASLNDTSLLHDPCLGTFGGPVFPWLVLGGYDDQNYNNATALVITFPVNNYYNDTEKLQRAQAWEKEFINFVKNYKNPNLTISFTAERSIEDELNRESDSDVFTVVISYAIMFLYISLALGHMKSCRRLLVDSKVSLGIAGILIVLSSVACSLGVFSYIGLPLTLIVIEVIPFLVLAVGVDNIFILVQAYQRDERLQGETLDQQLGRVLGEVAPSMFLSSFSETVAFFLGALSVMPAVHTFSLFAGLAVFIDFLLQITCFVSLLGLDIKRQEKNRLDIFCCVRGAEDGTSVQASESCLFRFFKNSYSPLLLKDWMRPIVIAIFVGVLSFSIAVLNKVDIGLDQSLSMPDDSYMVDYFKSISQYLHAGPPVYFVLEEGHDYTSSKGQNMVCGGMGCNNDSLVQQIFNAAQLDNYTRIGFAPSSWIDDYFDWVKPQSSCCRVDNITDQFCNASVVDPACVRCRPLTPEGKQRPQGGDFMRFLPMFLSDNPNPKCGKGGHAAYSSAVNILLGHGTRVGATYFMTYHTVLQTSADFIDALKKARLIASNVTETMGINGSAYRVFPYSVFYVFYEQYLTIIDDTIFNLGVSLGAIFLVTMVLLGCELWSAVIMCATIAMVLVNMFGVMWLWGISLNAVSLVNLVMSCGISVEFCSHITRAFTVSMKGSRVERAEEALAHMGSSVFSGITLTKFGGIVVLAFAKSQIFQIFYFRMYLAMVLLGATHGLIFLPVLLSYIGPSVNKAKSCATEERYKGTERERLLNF
overexpressed NPC1 in HEK293 cells: residues 23-1278 of O15118
UniProt Q8CJ69, residues 40-685: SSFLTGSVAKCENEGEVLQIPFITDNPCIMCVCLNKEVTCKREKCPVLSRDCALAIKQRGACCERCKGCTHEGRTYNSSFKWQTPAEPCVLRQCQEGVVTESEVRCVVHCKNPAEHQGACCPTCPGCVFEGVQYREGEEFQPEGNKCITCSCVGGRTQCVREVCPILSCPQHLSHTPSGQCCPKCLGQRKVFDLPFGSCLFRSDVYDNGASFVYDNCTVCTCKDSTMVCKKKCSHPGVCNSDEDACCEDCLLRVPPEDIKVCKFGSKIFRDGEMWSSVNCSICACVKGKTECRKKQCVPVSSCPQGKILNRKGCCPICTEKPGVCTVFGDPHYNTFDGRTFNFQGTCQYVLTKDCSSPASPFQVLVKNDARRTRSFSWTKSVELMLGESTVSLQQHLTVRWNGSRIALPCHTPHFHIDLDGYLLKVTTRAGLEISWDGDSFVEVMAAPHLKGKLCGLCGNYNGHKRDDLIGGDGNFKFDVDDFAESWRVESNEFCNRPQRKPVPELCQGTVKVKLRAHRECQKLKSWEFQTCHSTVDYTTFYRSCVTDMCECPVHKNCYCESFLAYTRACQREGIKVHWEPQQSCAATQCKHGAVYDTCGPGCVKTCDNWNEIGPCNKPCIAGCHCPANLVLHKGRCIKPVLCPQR
UniProt O35604, residues 23-1277: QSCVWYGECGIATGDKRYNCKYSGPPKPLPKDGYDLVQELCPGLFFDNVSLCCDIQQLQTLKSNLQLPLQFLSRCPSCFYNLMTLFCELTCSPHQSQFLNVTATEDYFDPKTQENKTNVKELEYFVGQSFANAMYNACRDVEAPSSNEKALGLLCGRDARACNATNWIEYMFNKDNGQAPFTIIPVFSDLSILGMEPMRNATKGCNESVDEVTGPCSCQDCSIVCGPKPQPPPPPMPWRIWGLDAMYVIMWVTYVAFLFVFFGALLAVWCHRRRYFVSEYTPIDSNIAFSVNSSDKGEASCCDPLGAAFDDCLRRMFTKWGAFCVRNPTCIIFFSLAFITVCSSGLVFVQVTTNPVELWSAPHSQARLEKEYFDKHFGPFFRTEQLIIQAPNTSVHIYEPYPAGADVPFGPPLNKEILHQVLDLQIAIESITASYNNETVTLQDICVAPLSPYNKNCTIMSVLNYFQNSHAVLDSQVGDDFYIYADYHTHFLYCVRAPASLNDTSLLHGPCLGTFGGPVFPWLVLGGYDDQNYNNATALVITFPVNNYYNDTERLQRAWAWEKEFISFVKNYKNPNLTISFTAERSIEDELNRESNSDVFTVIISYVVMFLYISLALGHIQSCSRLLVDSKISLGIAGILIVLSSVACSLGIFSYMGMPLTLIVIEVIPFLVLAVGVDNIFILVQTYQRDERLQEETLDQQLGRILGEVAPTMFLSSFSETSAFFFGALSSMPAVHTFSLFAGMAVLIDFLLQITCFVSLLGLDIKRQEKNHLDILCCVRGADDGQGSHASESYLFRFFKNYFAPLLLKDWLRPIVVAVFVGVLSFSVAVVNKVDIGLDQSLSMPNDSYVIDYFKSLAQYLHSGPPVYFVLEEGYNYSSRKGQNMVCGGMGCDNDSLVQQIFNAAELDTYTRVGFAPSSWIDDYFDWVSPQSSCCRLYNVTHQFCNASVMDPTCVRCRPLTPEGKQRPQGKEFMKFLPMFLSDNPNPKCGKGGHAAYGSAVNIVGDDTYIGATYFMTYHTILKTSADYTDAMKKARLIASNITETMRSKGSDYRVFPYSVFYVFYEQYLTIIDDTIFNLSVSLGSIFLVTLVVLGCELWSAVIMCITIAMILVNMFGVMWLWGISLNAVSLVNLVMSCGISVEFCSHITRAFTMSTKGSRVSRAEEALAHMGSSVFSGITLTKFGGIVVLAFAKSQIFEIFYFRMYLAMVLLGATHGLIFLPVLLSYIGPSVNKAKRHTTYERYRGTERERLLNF
UniProt P06213, residues 28-1382: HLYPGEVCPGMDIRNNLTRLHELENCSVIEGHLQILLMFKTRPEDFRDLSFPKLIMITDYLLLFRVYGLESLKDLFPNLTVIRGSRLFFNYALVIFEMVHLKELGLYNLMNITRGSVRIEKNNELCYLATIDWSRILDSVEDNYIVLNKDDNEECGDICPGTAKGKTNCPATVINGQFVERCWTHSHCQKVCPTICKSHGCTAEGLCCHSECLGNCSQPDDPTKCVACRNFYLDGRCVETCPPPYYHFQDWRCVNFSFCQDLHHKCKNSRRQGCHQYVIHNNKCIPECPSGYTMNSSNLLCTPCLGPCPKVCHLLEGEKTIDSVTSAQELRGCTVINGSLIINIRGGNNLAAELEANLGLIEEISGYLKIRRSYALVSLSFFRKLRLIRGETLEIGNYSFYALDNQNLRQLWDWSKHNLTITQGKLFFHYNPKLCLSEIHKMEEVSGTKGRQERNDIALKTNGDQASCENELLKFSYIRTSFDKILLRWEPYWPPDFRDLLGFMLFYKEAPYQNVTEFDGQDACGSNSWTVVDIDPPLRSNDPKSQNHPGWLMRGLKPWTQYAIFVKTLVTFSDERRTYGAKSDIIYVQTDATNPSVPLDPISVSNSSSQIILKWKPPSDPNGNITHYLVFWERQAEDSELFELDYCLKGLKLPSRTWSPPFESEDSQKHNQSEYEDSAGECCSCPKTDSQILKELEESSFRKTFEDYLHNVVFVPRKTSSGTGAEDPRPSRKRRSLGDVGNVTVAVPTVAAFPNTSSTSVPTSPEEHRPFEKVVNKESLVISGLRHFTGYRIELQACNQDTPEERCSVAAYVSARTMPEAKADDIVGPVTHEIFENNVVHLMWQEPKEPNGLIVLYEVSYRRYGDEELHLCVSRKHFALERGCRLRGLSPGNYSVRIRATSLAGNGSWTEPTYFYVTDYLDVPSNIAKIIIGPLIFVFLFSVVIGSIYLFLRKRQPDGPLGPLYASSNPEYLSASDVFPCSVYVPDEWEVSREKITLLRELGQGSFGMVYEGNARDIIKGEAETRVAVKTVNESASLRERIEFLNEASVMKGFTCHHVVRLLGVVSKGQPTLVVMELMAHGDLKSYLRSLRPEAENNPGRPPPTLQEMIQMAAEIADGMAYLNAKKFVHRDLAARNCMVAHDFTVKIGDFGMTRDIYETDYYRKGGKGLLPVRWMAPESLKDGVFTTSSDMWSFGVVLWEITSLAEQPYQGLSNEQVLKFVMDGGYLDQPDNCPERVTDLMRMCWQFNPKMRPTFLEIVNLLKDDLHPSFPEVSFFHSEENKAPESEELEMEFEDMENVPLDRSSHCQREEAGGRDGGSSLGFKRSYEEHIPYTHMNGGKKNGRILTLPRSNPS

Consider four substances from PMC7997910.

These are yes or no findings as the source states them, for the method shown. Binding seen in cells or lysates may run through a third protein. Some binding calls cover weakened binding; strength is not graded here.

On to “GFP-tagged BMPER (bone morphogenetic protein-binding endothelial regulator) (from UniProt Q8CJ69 40-685)”, for which the binding result in test [1] was “binds”.

On to “GFP-tagged NPC1 N-terminal domain construct (NTD, a.a. 25-164) (from UniProt O15118 25-164) (domain or fragment)”, for which the binding entry in test [2] is recorded as “binds”.

Take “overexpressed insulin receptor (IR) in HEK293 cells (from UniProt P06213 28-1382)”: the binding result in test [3] is recorded as “binds”.

In the case of “purified flag-tagged BMPER protein (from UniProt Q8CJ69 40-685)”, in test [4], the binding result is “binds”.
